No constants are given. Whether binding was seen depends on the method and setting. Binding seen in cells or lysates may run through a third protein. Binding can be weak; no strength is given. For part of these data: Sequences can lack the tags named with a protein.
Experiments:
[1] = target: T1, Flag-SMN (Drosophila SMN from the Flag-Smn^WT transgene) (Drosophila melanogaster) (UniProt Q9VV74); experiment: co-IP
T1 sequence: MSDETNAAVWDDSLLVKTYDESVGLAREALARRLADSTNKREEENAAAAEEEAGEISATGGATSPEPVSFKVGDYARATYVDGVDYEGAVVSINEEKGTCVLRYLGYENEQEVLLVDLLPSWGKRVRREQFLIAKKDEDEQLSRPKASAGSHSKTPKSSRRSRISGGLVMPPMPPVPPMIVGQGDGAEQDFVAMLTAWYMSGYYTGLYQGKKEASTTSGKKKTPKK

[2] = target: Flag-Slmb (Drosophila Slmb, in S2 cells) (Drosophila); experiment: co-IP

**Q.** With “supernumerary limbs (Slmb), endogenous in Drosophila embryos” as the molecule, how does the binding [1] read?
**A.** binds

**Q.** Which binding [1] does the source give for Tubulin (Drosophila) here?
**A.** no binding

B1: endogenous SMN of Drosophila S2 cells (protein, UniProt Q9VV74 1-226)
chain: T1 sequence
**Q.** With B1 as the molecule, how does the binding [2] read?
**A.** binds
